Laboratory results: patent EP2472259B1, “Specific molecules clinging to a lure” (Forschungszentrum Jülich GmbH, priority 2006, dated 2014)
Not every detail of the peptide structures is certain; ends, links or a residue may be inferred. Ends that are not written are not given here.

Columns and labels:
Test in all cases: Surface plasmon resonance (Biacore) measurement of SH3 binding
[1] = biological target: Hck SH3-Domäne; conditions: Hck SH3 amine-coupled to CM5 chip, Biacore X, 21,5°C, HBS pH 7.4, steady state, 1:1 binding model; read-out: KD-Wert
[2] = biological target: Src SH3-Domäne; conditions: Src SH3 amine-coupled to CM5 chip, Biacore X, 21,5°C, HBS pH 7.4, steady state, 1:1 binding model; read-out: KD-Wert
[3] = biological target: Lyn SH3-Domäne; conditions: Lyn SH3 amine-coupled to CM5 chip, Biacore X, 21,5°C, HBS pH 7.4, steady state, 1:1 binding model; read-out: KD-Wert
[4] = biological target: Lck-SH3-Domäne; design: species or system menschlichen; conditions: Lck SH3 amine-coupled to CM5 chip, Biacore X, 21,5°C, HBS pH 7.4, steady state, 1:1 binding model; read-out: KD-Wert

HSWYPVPIPPSS [PDII1, HSWYPVPIPPSS]
Kd [1]: 10 µM
Kd [2]: > 200 µM
Kd [3]: 27 µM
Kd [4]: 6 µM
